The supplement of paper PMC3334620
Whole data set: some 33,000 sequences, median “E-score (-0.5 to 0.5)” near -0.0034, cut for the highest 2% near 0.25. This is one part of the list.

The sequences below were run against T1, Yap3 (UniProt P38749) (assay: PBM E-score (8-mer binding enrichment) (E-score (-0.5 to 0.5)); higher = stronger / more preferred TF binding). Conditions: protein concentration: 100 nM; construct: GST-full length.
T1 sequence: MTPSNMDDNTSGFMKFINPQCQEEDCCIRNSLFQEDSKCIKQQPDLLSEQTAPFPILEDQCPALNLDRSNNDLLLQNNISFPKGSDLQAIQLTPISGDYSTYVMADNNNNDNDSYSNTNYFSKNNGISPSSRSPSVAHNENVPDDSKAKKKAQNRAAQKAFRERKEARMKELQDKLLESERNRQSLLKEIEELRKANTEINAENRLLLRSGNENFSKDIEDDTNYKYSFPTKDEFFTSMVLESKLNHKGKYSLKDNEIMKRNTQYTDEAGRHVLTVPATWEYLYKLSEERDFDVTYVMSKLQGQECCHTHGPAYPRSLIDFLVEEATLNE
How it was run: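 Yeast transcription factors carrying a GST tag, as full-length proteins or DNA-binding domains, were produced by PURExpress in vitro transcription/translation. About 100-200 nM protein was applied to universal all-10-mer Agilent arrays, double-stranded by primer extension on fresh or once-stripped slides. Bound protein was detected with fluorescent anti-GST, and scans were normalised with masliner. The Universal PBM Analysis Suite gave each ungapped eight-base word, pooled with its reverse complement, an E-score, a modified Wilcoxon-Mann-Whitney statistic.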
In the case of AGGTGTTA, the “PBM E-score” value is reported as 0.0571. CGGGGATA was tested, and the “PBM E-score” value was -0.0572. With CCACATCG the “PBM E-score” value was -0.0241. In the case of AAGTTGTA, the “PBM E-score” value is reported as 0.196. In the case of TCTCTGCA, the “PBM E-score” value is reported as -0.152. With TCTGAAGA the “PBM E-score” value was -0.167. In the case of CGATTATC, the “PBM E-score” value is reported as 0.0664. In the case of AAACAACA, the “PBM E-score” value is reported as 0.222. With ATAATTTG the “PBM E-score” value was 0.294. With ACGCCACC the “PBM E-score” value was -0.186. In the case of GAGAACGA, the “PBM E-score” value is reported as 0.00944. For CGGGGTCC, the “PBM E-score” value was -0.179. For GCTCGATA, the “PBM E-score” value was -0.0478. In the case of AGATCTCA, the “PBM E-score” value is reported as -0.0611. In the case of CGCATCCA, the “PBM E-score” value is reported as -0.0319. With GTAGTGAC the “PBM E-score” value was 0.0382. With GGCTGTAA the “PBM E-score” value was -0.131. For AGGCATTA, the “PBM E-score” value was -0.117. CATCGACG was tested, and the “PBM E-score” value was -0.111. For AAGGGTCG, the “PBM E-score” value was -0.14. AAGGCTTA was tested, and the “PBM E-score” value was 0.0457. For GTAGTATA, the “PBM E-score” value was 0.233. With AAATGGCA the “PBM E-score” value was 0.0241. CAAAGGGC was tested, and the “PBM E-score” value was -0.168. For ATGGGACG, the “PBM E-score” value was -0.199. With CATGCTCG the “PBM E-score” value was -0.0852. AAGGCCGT was tested, and the “PBM E-score” value was -0.104. CCGCAGCA was tested, and the “PBM E-score” value was -0.0274. ATTACCTG was tested, and the “PBM E-score” value was 0.142. With CTTTTAAA the “PBM E-score” value was 0.131. With ACGCTTGA the “PBM E-score” value was -0.0386. For AGGCGCCG, the “PBM E-score” value was -0.0458. With AGTGTTAC the “PBM E-score” value was 0.154. ACCGCATG was tested, and the “PBM E-score” value was -0.0848. For CGAAGGAA, the “PBM E-score” value was 0.0662. AGGCTCGC was tested, and the “PBM E-score” value was -0.224. AACGTAAT was tested, and the “PBM E-score” value was 0.353. For ATCGGAGC, the “PBM E-score” value was -0.157. For ATAAGGGA, the “PBM E-score” value was 0.114. With ATGTTAAT the “PBM E-score” value was 0.18. GAGGGACA was tested, and the “PBM E-score” value was 0.00636. In the case of AGAGTACG, the “PBM E-score” value is reported as -0.12. TCCGTTCA was tested, and the “PBM E-score” value was -0.114. For ATTCTAAA, the “PBM E-score” value was 0.0761. With CCATTGAC the “PBM E-score” value was -0.0622. For AGATTAAA, the “PBM E-score” value was 0.197. With CCAGCCGC the “PBM E-score” value was -0.119. For CCCAGACA, the “PBM E-score” value was -0.175. For CCACGAGA, the “PBM E-score” value was -0.142. AGTCCTCC was tested, and the “PBM E-score” value was -0.277. With GAGGACCA the “PBM E-score” value was -0.051. With TATTTGGA the “PBM E-score” value was -0.0865. In the case of GGCTATGA, the “PBM E-score” value is reported as -0.0379. CATAGGAA was tested, and the “PBM E-score” value was -0.0287. For GCACTGAC, the “PBM E-score” value was 0.0258. With ACACAAAC the “PBM E-score” value was 0.0974. With GCCCTGGA the “PBM E-score” value was -0.279. CCCGATGC was tested, and the “PBM E-score” value was -0.195. For AGAACCCA, the “PBM E-score” value was -0.0409. In the case of ACACCAGT, the “PBM E-score” value is reported as -0.139. In the case of CTCCCTCA, the “PBM E-score” value is reported as -0.122. In the case of AACCCTTC, the “PBM E-score” value is reported as 0.0674. For ATCAATAG, the “PBM E-score” value was 0.0702. For AATTCGTC, the “PBM E-score” value was 0.185. In the case of CTAGAGTA, the “PBM E-score” value is reported as -0.0831. For ACTATCCA, the “PBM E-score” value was 0.0137. In the case of AAATGGGG, the “PBM E-score” value is reported as -0.171. With CCACGTTA the “PBM E-score” value was 0.169. ATAGGACA was tested, and the “PBM E-score” value was -0.0795. With CGCGCAAC the “PBM E-score” value was -0.0558. For CGGCGGAA, the “PBM E-score” value was -0.0846. AATCTAAT was tested, and the “PBM E-score” value was 0.118. GTGTGTTA was tested, and the “PBM E-score” value was 0.259. For ATCCGTGC, the “PBM E-score” value was 0.145. For ATGGACCA, the “PBM E-score” value was 0.0714. With GCCGTGCC the “PBM E-score” value was -0.168. In the case of TCAGTACA, the “PBM E-score” value is reported as 0.136. In the case of AATACCGT, the “PBM E-score” value is reported as 0.143. With CTCTGACA the “PBM E-score” value was -0.211. With AGCACCAC the “PBM E-score” value was -0.291. With CTACGAAA the “PBM E-score” value was 0.033. In the case of CATAAAGA, the “PBM E-score” value is reported as 0.154. In the case of AACTGCAA, the “PBM E-score” value is reported as 0.00467. With ATGTTCCC the “PBM E-score” value was -0.0729. For CACCGTGC, the “PBM E-score” value was 0.1. CCGCGGAA was tested, and the “PBM E-score” value was 0.042. For CCCGGACC, the “PBM E-score” value was -0.297. For ATAGGCGC, the “PBM E-score” value was 0.0168. With CTTGAAGC the “PBM E-score” value was 0.00623. With GAACTCAC the “PBM E-score” value was -0.00644. For AGTCTTCC, the “PBM E-score” value was -0.0245. With GGTGAGAC the “PBM E-score” value was -0.0521. In the case of GAATTTGC, the “PBM E-score” value is reported as 0.0376. CGGATGCA was tested, and the “PBM E-score” value was -0.0966.
